Measured values taken from the supplement of paper PMC10849652.
The list shows a part of the results.

Amino acid sequences for entries named in this document (tags omitted). A change or cut given only in a name is not applied to a line headed by its entry.
UniProt Q6IPR1: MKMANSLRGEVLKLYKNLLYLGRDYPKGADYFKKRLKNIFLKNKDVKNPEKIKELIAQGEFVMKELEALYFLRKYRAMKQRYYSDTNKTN
UniProt Q7Z2K6: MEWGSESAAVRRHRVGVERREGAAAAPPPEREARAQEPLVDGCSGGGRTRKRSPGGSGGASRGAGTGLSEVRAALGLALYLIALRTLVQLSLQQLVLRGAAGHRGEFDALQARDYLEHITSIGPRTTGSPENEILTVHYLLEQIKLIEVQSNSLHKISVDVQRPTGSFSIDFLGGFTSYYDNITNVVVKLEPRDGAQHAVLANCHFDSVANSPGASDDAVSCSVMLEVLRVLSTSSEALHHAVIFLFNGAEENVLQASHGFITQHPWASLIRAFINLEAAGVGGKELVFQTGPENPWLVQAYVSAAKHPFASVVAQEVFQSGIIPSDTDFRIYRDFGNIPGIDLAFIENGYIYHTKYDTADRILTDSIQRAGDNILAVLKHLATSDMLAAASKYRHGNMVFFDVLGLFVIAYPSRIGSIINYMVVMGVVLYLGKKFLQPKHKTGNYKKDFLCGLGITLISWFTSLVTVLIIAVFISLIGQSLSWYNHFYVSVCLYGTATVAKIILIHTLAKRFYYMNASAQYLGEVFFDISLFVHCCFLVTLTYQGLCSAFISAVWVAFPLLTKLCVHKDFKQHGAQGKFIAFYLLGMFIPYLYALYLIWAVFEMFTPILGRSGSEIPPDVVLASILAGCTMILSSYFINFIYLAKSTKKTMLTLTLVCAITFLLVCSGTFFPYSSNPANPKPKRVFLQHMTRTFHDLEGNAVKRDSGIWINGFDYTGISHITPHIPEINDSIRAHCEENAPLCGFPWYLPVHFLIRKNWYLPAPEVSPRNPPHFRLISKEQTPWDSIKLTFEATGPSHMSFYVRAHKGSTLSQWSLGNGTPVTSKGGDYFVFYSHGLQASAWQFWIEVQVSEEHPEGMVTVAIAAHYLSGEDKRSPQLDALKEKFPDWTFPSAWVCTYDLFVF
UniProt P16930: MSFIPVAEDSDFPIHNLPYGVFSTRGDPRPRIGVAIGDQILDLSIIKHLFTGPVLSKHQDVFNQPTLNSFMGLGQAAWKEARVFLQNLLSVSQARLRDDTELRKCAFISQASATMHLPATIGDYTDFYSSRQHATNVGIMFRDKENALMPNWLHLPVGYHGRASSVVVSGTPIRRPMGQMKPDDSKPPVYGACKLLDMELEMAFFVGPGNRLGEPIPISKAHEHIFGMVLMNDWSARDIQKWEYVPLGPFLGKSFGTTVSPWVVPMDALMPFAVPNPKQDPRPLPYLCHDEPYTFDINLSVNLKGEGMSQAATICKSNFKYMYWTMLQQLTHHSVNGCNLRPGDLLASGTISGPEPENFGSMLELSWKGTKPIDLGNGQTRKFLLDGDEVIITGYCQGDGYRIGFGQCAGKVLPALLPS
UniProt Q13158: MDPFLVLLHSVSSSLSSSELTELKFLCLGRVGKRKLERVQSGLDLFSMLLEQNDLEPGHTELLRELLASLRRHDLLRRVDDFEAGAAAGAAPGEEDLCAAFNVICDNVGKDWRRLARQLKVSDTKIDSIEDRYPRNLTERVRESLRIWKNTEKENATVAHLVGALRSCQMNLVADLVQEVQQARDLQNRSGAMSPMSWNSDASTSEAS
UniProt Q99504: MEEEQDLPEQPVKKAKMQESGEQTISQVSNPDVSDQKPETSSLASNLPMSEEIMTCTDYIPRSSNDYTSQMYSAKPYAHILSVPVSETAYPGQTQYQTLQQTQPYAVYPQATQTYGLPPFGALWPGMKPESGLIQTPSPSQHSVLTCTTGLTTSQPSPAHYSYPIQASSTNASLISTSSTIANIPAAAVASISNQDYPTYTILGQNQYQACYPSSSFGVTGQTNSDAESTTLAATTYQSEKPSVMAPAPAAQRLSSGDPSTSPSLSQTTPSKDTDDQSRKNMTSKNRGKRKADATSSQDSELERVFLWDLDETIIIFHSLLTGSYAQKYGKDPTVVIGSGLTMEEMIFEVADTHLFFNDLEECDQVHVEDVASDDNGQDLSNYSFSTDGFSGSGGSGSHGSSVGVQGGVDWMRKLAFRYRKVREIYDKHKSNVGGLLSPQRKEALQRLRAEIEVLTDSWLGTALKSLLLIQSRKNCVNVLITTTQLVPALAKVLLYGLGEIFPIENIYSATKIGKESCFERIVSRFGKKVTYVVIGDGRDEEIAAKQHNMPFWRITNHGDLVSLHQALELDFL
UniProt P11474: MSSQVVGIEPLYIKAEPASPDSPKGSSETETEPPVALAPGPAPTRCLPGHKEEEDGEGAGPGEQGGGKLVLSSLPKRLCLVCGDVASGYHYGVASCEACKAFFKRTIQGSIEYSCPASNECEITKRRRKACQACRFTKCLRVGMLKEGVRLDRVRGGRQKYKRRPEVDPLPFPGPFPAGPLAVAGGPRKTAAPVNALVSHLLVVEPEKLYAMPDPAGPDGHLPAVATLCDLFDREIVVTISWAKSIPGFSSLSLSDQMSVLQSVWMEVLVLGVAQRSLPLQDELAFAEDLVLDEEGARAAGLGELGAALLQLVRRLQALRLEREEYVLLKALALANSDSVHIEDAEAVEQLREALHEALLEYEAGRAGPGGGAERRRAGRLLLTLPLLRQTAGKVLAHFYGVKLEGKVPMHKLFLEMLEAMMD
UniProt Q9UF33: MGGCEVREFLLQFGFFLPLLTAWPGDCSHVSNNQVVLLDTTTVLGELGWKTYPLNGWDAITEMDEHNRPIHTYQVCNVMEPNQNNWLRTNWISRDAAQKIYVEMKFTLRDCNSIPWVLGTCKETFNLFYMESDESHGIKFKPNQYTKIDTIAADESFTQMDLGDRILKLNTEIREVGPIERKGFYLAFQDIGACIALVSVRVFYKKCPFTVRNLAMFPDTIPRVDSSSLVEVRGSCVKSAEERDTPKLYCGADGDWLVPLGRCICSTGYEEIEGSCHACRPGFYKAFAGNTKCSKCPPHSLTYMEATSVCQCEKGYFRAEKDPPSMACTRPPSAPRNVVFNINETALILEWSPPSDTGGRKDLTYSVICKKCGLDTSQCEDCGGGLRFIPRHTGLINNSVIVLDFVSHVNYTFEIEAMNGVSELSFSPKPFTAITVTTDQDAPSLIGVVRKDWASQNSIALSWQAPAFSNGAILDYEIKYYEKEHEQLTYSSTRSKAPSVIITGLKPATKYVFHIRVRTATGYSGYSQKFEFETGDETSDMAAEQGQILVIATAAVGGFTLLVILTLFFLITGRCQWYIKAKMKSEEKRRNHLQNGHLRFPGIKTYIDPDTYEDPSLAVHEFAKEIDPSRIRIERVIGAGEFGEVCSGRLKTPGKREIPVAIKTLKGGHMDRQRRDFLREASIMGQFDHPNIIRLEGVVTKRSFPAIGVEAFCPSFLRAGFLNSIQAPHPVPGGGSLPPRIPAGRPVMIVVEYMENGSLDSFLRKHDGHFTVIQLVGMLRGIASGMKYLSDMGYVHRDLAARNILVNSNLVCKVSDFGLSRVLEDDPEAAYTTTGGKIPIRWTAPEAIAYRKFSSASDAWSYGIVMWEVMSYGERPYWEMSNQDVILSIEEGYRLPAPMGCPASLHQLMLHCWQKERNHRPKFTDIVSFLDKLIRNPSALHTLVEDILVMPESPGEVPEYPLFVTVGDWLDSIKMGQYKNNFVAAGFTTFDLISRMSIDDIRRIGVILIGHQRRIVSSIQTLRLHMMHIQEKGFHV
UniProt Q9NVH0: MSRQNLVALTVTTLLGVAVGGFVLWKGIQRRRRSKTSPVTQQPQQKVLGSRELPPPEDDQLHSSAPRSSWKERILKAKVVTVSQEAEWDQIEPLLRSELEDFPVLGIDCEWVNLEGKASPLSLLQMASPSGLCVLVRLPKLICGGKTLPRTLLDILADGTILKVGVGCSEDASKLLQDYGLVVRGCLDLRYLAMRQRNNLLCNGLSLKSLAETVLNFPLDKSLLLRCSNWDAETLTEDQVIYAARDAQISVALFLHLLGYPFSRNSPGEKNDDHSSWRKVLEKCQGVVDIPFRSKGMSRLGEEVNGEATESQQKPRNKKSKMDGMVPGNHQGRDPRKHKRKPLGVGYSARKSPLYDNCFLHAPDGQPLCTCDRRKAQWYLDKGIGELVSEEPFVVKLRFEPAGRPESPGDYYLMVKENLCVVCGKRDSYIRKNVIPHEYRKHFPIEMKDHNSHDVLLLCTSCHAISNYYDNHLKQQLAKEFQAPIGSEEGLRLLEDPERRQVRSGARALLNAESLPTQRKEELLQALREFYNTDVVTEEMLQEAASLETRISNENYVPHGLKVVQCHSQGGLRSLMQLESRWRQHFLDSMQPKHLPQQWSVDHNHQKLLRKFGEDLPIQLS
UniProt O75460: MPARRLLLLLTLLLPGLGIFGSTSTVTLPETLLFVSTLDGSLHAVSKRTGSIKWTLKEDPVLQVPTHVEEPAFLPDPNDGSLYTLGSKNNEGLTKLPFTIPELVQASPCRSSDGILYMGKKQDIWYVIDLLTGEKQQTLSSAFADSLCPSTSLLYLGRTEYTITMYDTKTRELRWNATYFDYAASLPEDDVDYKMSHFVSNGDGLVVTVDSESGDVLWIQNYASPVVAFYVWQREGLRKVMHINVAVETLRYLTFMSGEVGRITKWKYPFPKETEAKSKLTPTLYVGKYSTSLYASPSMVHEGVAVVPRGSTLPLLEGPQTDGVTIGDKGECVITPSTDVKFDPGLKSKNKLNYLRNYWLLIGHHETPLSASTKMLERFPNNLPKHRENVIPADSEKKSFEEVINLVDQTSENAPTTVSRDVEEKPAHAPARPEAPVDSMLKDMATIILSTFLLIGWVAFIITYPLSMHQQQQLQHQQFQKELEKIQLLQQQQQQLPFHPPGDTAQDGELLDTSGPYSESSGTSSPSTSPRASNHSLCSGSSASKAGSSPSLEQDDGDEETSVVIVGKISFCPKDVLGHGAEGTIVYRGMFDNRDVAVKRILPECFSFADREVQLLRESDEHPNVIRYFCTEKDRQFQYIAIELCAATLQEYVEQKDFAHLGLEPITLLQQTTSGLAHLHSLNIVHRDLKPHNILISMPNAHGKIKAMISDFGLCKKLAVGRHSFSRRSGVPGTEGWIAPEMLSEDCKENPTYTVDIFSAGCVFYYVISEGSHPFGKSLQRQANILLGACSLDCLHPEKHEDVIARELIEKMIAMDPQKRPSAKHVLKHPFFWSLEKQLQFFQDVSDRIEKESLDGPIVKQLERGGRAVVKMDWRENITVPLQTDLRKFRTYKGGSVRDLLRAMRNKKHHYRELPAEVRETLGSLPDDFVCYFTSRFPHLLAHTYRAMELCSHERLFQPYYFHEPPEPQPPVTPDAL
UniProt Q2NKX8: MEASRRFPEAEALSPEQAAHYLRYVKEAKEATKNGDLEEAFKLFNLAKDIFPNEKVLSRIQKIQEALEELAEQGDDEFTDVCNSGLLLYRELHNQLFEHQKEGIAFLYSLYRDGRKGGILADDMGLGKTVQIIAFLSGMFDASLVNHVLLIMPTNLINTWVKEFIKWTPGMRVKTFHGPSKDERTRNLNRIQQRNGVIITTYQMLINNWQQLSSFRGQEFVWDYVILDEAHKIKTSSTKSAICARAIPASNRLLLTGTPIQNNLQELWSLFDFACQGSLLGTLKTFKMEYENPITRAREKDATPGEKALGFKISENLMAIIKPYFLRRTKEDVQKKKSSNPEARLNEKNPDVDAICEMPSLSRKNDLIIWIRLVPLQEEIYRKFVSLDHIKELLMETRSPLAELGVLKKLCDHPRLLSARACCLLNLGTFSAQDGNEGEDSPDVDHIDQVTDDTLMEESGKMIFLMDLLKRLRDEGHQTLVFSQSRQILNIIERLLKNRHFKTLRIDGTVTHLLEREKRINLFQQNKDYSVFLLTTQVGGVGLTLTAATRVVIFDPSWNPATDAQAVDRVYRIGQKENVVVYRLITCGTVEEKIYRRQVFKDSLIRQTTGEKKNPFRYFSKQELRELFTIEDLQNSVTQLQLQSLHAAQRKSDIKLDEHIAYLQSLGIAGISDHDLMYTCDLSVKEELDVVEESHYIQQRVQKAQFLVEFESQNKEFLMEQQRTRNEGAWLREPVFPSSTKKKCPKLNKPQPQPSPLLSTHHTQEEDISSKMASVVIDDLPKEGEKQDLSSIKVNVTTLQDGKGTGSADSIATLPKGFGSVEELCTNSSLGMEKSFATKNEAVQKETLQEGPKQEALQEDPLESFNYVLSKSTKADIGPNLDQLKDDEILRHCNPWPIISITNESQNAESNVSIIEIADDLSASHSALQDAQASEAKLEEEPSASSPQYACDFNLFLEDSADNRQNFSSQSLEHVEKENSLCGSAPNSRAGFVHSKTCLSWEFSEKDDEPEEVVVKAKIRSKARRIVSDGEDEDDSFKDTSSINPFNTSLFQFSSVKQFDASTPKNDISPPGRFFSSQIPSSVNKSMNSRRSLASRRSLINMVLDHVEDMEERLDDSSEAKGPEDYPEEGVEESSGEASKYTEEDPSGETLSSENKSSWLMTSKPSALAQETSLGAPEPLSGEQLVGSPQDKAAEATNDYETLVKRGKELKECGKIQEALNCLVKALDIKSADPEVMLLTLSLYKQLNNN

Tests used:
Test in all cases: log2 fold change, soluble protein after heating vs DMSO (PISA); higher = thermal stabilisation; K562 cells, 10 uM, 30 min; active = over 0.2 and 3.5 SD of the protein, either way, in both replicates (recomputed)
[1] = compound: NC(=O)Nc1cc(-c2cccc(F)c2)sc1C(=O)N[C@H]1CCCNC1
How it was run: (§1)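 Values are thermal stability changes relative to control samples and are taken from duplicates. They are stated as log2 fold changes. Before quantification by TMTpro 16plex LC-MS/MS with equalised channel sums, K562 cells at 2×10^6 cells/mL were treated with 10 μM compound for 30 min, heated in aliquots for 3 min across 48°C-58°C, pooled, extracted in PBS with 0.5% NP-40 at 4°C, and centrifuged at 21,000xg for 90 min to give the soluble supernatant.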

[2] = compound: NC(=O)c1cnc(N[C@@H]2CCCC[C@@H]2N)nc1Nc1cccc(-n2nccn2)c1
How it was run: as §1

[3] = compound: NC1(c2ccc(-c3nc4ccn5c(=O)[nH]nc5c4cc3-c3ccccc3)cc2)CCC1
How it was run: as §1

[4] = compound: NCC(=O)Nc1ccc(-n2nc(C(F)(F)F)cc2-c2ccc3c(ccc4ccccc43)c2)cc1
How it was run: as §1

[5] = compound: Nc1ccccc1NC(=O)c1ccc(CNC(=O)OCc2cccnc2)cc1 [entinostat]
How it was run: as §1

[6] = compound: O=C(CCCCCCC(=O)Nc1ccccc1)NO [vorinostat]
How it was run: as §1

[7] = compound: O=C(O)c1ccc2c(c1)nc(Nc1cccc(Cl)c1)c1ccncc12 [silmitasertib]
How it was run: as §1

[8] = compound: O=C1NC(=O)C(c2cnc3ccccn23)=C1c1cn2c3c(cc(F)cc13)CN(C(=O)N1CCCCC1)CC2
How it was run: as §1

[9] = compound: O=C(CCCCCCNC(=O)c1cnc(N(c2ccccc2)c2ccccc2Cl)nc1)NO [citarinostat]
How it was run: as §1

[10] = compound: c1cc(OCCN2CCCCC2)cc(-c2n[nH]c3ccc(-c4nnc[nH]4)cc23)c1
How it was run: as §1

Target | log2 fold change [1] | log2 fold change [2] | log2 fold change [3] | log2 fold change [4] | log2 fold change [5] | log2 fold change [6] | log2 fold change [7] | log2 fold change [8] | log2 fold change [9] | log2 fold change [10]
ETFRF1 (UniProt Q6IPR1) | inactive: -0.017 | inactive: 0.18 | inactive: 0.054 | inactive: -0.003 | inactive: -0.087 | inactive: -0.116 | inactive: -0.02 | inactive: -0.034 |  | 
FAM122A (UniProt Q96E09) | inactive: -0.031 | inactive: 0.076 | inactive: -0.048 | inactive: 0.023 | inactive: 0.143 | inactive: 0.025 | inactive: 0.005 | inactive: -0.052 | inactive: -0.009 | inactive: 0.062
EPHX2 (UniProt P34913) | inactive: -0.148 | inactive: -0.05 | inactive: -0.016 | inactive: -0.015 | inactive: 0.045 | inactive: 0.113 | inactive: 0.003 | inactive: -0.025 | inactive: 0.025 | inactive: -0.037
ERMP1 (UniProt Q7Z2K6) | inactive: -0.003 | inactive: 0.028 | inactive: -0.036 | inactive: -0.026 | inactive: -0.041 | inactive: -0.032 | inactive: 0.001 | inactive: -0.007 | inactive: 0.007 | inactive: 0.005
ERLIN2 (UniProt O94905) | inactive: 0.04 | inactive: -0.047 | inactive: -0.01 | inactive: -0.062 | inactive: 0.032 | inactive: 0.048 | inactive: 0.002 | inactive: 0.069 | inactive: 0.011 | inactive: -0.044
ESD (UniProt P10768) | inactive: 0.024 | inactive: 0.006 | inactive: 0.028 | inactive: 0.001 | inactive: -0.021 | inactive: -0.049 | inactive: -0.004 | inactive: -0.068 | inactive: 0.011 | inactive: 0.024
EPN2 (UniProt O95208) | inactive: -0.061 | inactive: 0.022 | inactive: -0.026 | inactive: 0.031 | inactive: -0.038 | inactive: -0.04 | inactive: 0.092 | inactive: -0.021 | inactive: -0.005 | inactive: -0.05
EXOC6 (UniProt Q8TAG9) | inactive: -0.052 | inactive: -0.091 | inactive: -0.258 | inactive: -0.078 | inactive: 0.045 | active: 0.324 | inactive: 0.049 | inactive: 0.03 | inactive: 0.023 | inactive: 0.007
FADS3 (UniProt Q9Y5Q0) | inactive: -0.086 | inactive: -0.096 | inactive: -0.074 | inactive: 0.079 | inactive: -0.06 | inactive: 0.024 | inactive: -0.008 | inactive: 0.259 | inactive: 0.022 | inactive: -0.034
EPRS (UniProt P07814) | inactive: 0.132 | inactive: 0.005 | inactive: 0.194 | inactive: 0.075 | inactive: 0.054 | inactive: -0.001 | inactive: 0.25 | inactive: 0.321 | inactive: -0.05 | inactive: -0.167
FAH (UniProt P16930) | inactive: 0.009 | inactive: -0.041 | inactive: 0.021 | inactive: -0.037 | inactive: -0.018 | inactive: -0.018 | inactive: -0.002 | inactive: -0.075 | inactive: 0.042 | inactive: 0.059
EPB41L2 (UniProt O43491) | inactive: -0.129 | inactive: 0.034 | inactive: 0.037 | inactive: -0.034 | inactive: -0.042 | inactive: -0.02 | inactive: -0.01 | inactive: -0.038 | inactive: 0.014 | inactive: -0.023
ERCC4 (UniProt Q92889) | inactive: -0.404 | inactive: -0.092 | inactive: -0.432 | inactive: -0.316 | inactive: -0.039 | inactive: -0.218 | inactive: 0.07 | inactive: -0.144 | inactive: 0.004 | inactive: -0.194
F9 (UniProt P00740) |  | inactive: 0.09 |  | inactive: 0 |  |  |  |  |  | 
ERH (UniProt P84090) |  | inactive: 0.001 | inactive: 0.11 | inactive: 0.002 |  | inactive: -0.191 | inactive: -0.128 | inactive: 0.097 | inactive: 0.029 | inactive: -0.183
FAM185A (UniProt Q8N0U4) |  | inactive: -0.035 | inactive: -0.117 | inactive: 0.037 |  |  | inactive: 0.069 |  |  | 
EPB41L2 isoform 4 (UniProt O43491) | inactive: 0.096 |  | inactive: -0.034 |  | inactive: 0.015 |  | inactive: -0.247 | inactive: -0.047 |  | 

Another view of some results above:
Target	log2 fold change [1]	log2 fold change [2]	log2 fold change [3]	log2 fold change [4]	log2 fold change [5]	log2 fold change [6]	log2 fold change [7]	log2 fold change [8]	log2 fold change [9]	log2 fold change [10]
ESD (UniProt P10768)	inactive: 0.024	inactive: 0.006	inactive: 0.028	inactive: 0.001	inactive: -0.021	inactive: -0.049	inactive: -0.004	inactive: -0.068	inactive: 0.011	inactive: 0.024
EPN2 (UniProt O95208)	inactive: -0.061	inactive: 0.022	inactive: -0.026	inactive: 0.031	inactive: -0.038	inactive: -0.04	inactive: 0.092	inactive: -0.021	inactive: -0.005	inactive: -0.05

Carrying on.

Target | log2 fold change [1] | log2 fold change [2] | log2 fold change [3] | log2 fold change [4] | log2 fold change [5] | log2 fold change [6] | log2 fold change [7] | log2 fold change [8] | log2 fold change [9] | log2 fold change [10]
FADD (UniProt Q13158) | inactive: -0.038 | inactive: -0.09 | inactive: -0.081 | inactive: -0.015 | inactive: 0.096 |  | inactive: 0.01 | inactive: -0.033 | inactive: -0.102 | inactive: -0.241
FAM126A (UniProt Q9BYI3) |  | inactive: -0.047 | inactive: -0.035 |  |  |  | inactive: -0.006 | inactive: 0.183 | inactive: 0.083 | inactive: -0.097
EPS15L1 (UniProt M0QY01) | inactive: 0.005 |  |  | inactive: 0.122 | inactive: -0.001 |  |  | inactive: -0.007 |  | 
FAM193B (UniProt Q96PV7) | inactive: 0.22 | inactive: -0.053 |  | inactive: -0.014 | inactive: 0.25 |  |  | inactive: 0.149 | inactive: 0.032 | inactive: -0.205
EPHB4 (UniProt P54760) | inactive: -0.207 |  | inactive: -0.102 |  | inactive: 0.122 |  | inactive: 0.18 |  |  | 
EZH2 isoform 2 (UniProt Q15910) | inactive: 0.316 | inactive: -0.004 | inactive: 0.342 | inactive: 0.33 | inactive: -0.039 |  | inactive: 0.046 | inactive: -0.118 |  | 
FAM204A (UniProt Q9H8W3) | inactive: 0.053 |  | inactive: 0.199 | inactive: -0.06 | inactive: -0.049 | inactive: 0 | inactive: -0.093 | inactive: 0.169 |  | 
EYA3 (UniProt Q99504) |  | inactive: -0.387 | inactive: 0.217 | inactive: -0.049 |  | inactive: -0.068 | inactive: -0.137 |  |  | 
EVPL (UniProt Q92817) | inactive: -0.376 |  | inactive: 0.039 |  | inactive: -0.258 | inactive: 0.173 | inactive: 0.151 |  | inactive: 0.048 | inactive: -0.216
ESRRA (UniProt P11474) | inactive: -0.051 | inactive: 0.024 | inactive: -0.045 | inactive: -0.064 | inactive: -0.033 |  | inactive: 0.003 | inactive: -0.059 | inactive: -0.019 | inactive: 0.022
EPHA6 (UniProt Q9UF33) | inactive: -0.523 | inactive: -0.368 | inactive: -0.085 | inactive: -0.504 | inactive: -0.346 |  | inactive: 0.272 | inactive: -0.173 | inactive: -0.354 | inactive: 0.401
EPS8L2 isoform 3 (UniProt Q9H6S3) | inactive: -0.26 |  |  |  | inactive: -0.211 |  |  | inactive: 0.084 | inactive: -0.023 | inactive: -0.066
EXD2 (UniProt Q9NVH0) | inactive: -0.073 |  |  |  | inactive: 0.132 |  |  | inactive: 0.037 |  | 
EXOG (UniProt Q9Y2C4) |  | inactive: 0.04 | inactive: 0.007 | inactive: -0.001 |  | inactive: -0.033 | inactive: -0.036 |  | inactive: -0.048 | inactive: 0.004
ERN1 (UniProt O75460) | inactive: -0.04 |  | inactive: 0.02 |  | inactive: -0.107 | inactive: 0.087 | inactive: 0.009 | inactive: -0.17 |  | 
ERCC6L (UniProt Q2NKX8) | inactive: -0.029 | inactive: -0.122 |  | inactive: 0.055 | inactive: 0.017 | inactive: 0.147 |  | inactive: 0.267 | inactive: 0.023 | inactive: -0.117

Looked up above:
Under log2 fold change [3], FADD (UniProt Q13158) reads inactive: -0.081
Under log2 fold change [1], FAM193B (UniProt Q96PV7) reads inactive: 0.22
